Assay results reported in publication PMC9179855.

Biological target: MUC1 C-terminal subunit (MUC1-C) (human (endogenous in BT-549))
Experiment: co-IP; nuclear lysates of BT-549 cells stimulated with IFN-β for 4 h; DNA digested with 20 U/mL DNase for 30 min at 37 °C; anti-MUC1-C (#MA5-11202) at 4 °C overnight, Dynabeads Protein G for 2 h at 4 °C; control IgG; precipitates immunoblotted

binding: binds
B1: IRF1 (protein, UniProt P10914 1-325)
chain: MPITRMRMRPWLEMQINSNQIPGLIWINKEEMIFQIPWKHAAKHGWDINKDACLFRSWAIHTGRYKAGEKEPDPKTWKANFRCAMNSLPDIEEVKDQSRNKGSSAVRVYRMLPPLTKNQRKERKSKSSRDAKSKAKRKSCGDSSPDTFSDGLSSSTLPDDHSSYTVPGYMQDLEVEQALTPALSPCAVSSTLPDWHIPVEVVPDSTSDLYNFQVSPMPSTSEATTDEDEEGKLPEDIMKLLEQSEWQPTNVDGKGYLLNEPGVQPTSVYGDFSCKEEPEIDSPGGDIGLSLQRVFTDLKNMDATWLDSLLTPVRLPSIQAIPCAP

Results are given in words; binding and its absence hold for the method and conditions named. Binding seen in cells or lysates may run through a third protein. A result given as binding can be weak or reduced; the word gives no strength.
